Results as given in patent US12098218 (dated 2024).

Test: general procedure: Fmoc solid-phase peptide synthesis; HBTU/diisopropylethylamine; diisopropylcarbodiimide/1-hydroxybenzotriazole
Conditions: whole synthesis, HPLC (Agilent UPLC 1290, C8 Zorbax Eclipse plus, 226 nm)

Substance: Fmoc-4-Aph-Leu-Lys(iPr)-Pro-Ala-NH2
- crude HPLC purity (run 1): purity 53.24%
- crude HPLC purity (run 2): 65%
- crude HPLC purity (run 3): 67%
